Results are given in words; binding and its absence hold for the method and conditions named. Some entries that bind do so weakly or less than the wild type.
Assays:
[1] = target: T1, soluble recombinant human PD-1 receptor (human, UniProt Q15116 25-167, limits assumed); test: BIACORE
T1 construct: also called human PD-1 receptors

The chains behind the UniProt entries cited, without tags or fusion partners. Residues count along the entry.
UniProt Q15116, residues 25-167: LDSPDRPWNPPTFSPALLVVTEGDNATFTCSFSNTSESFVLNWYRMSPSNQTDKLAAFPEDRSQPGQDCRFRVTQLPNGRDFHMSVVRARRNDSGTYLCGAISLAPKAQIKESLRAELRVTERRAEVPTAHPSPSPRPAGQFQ

[2] = target: T1, soluble recombinant human PD-1 receptor; test: clonal phage ELISA

binding [1]: binds | binding [2]: binds
Binder: WNLPASFHNHHIRPHEHEWIQ (also called WQ-21; peptide WQ20) [WQ20]

From patent EP3758732B1 (Leidos, Inc., dated 2024)
